Measurements published in the supplement of paper PMC10338343.
± gives the standard deviation. The entries are a selection whose mix differs from that of the whole data set. Many of these values have a large error. Some of the results follow.

Legend:
[1] = system: MILI (PIWIL2) piRISC loaded with L1MC piRNA (26 nt); test: pre-steady-state target cleavage rate (min^-1); higher = faster piRNA-guided slicing of the target; conditions: guide: L1MC piRNA 5'p-UAACUAAAUACUAUGCAAGCUGUAGG
Method in brief: (§1)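 The method was Cleave-'n-Seq, in which uncleaved targets from a transcribed, DNA-blocked target RNA library were sequenced after exposure to active affinity-purified piRISC carrying one synthetic guide, with or without GTSF1 partner protein. Reactions contained 0.1 nM library, 1 nM piRISC and, where present, 500 nM GTSF1 in HEPES–potassium acetate buffer at 33 °C for 0–8 or 0–960 min. Reads were normalised to depth and to weakly complementary targets, three trials were pooled, and k3 was capped at 0.0001 min^-1. The pre-steady-state cleavage rate came from a burst-and-steady-state fit.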

[2] = system: EfPiwi piRISC loaded with L1MC piRNA (26 nt); test: pre-steady-state target cleavage rate (min^-1); guide: L1MC piRNA 5'p-UAACUAAAUACUAUGCAAGCUGUAGG; MIWI and MILI are mouse PIWI proteins and EfPiwi is from a freshwater sponge; tags in brackets are library labels; higher = faster piRNA-guided slicing of the target
Method in brief: as §1

[3] = auxiliary factor: none (no GTSF1)
[4] = auxiliary factor: 500 nM Ephydatia muelleri Gtsf1
[5] = auxiliary factor: none (no Gtsf1)
[6] = auxiliary factor: 500 nM mouse GTSF1

## UCCUCCAACAGCUUGCAUAGUAUUUAGAAA
[1]; [3]
  pre-steady-state target cleavage rate: 0.00205 ± 0.0038
[2]; [4]
  pre-steady-state target cleavage rate: 0.00461 ± 0.0019
[2]; [5]
  pre-steady-state target cleavage rate: 0.00059 ± 0.0094

## UCCUGGAACAGCAACCAUAGUAUUUAGAAA
[1]; [3]
  pre-steady-state target cleavage rate: 0.000721 ± 0.0078
[2]; [4]
  pre-steady-state target cleavage rate: 0.000483 ± 0.01
[2]; [5]
  pre-steady-state target cleavage rate: 0.000539 ± 0.014

## UCCUGGUACAGCUUGCAUAGAAUUAAGUUA
[1]; [3]
  pre-steady-state target cleavage rate: 0.00194 ± 0.0045
[2]; [4]
  pre-steady-state target cleavage rate: 0.00454 ± 0.0027
[2]; [5]
  pre-steady-state target cleavage rate: 0.000564 ± 0.012

## UCCUGGUACAGCUUGCUUAGUAUUUUGUUA
[1]; [3]
  pre-steady-state target cleavage rate: 0.00209 ± 0.004
[2]; [4]
  pre-steady-state target cleavage rate: 0.00295 ± 0.0034
[2]; [5]
  pre-steady-state target cleavage rate: 0.000639 ± 0.016

## UCCUGCUACAGCUUGGAUAGUAUUUAGAUA
[1]; [3]
  pre-steady-state target cleavage rate: 0.00169 ± 0.0034
[2]; [4]
  pre-steady-state target cleavage rate: 0.00339 ± 0.001
[2]; [5]
  pre-steady-state target cleavage rate: 0.000408 ± 0.011

## UCCUGGUACAGCUUGCAUAGUAUAUACUUA
[1]; [3]
  pre-steady-state target cleavage rate: 0.00128 ± 0.0064
[2]; [4]
  pre-steady-state target cleavage rate: 0.000904 ± 0.0044
[2]; [5]
  pre-steady-state target cleavage rate: < 0.0001

## UCCUGCUACUGCUUGCAUAGUAUUUAGAUA
[1]; [3]
  pre-steady-state target cleavage rate: 0.00107 ± 0.0045
[2]; [4]
  pre-steady-state target cleavage rate: 0.00383 ± 0.0018
[2]; [5]
  pre-steady-state target cleavage rate: 0.000339 ± 0.013

## UCCUGGAACAGCUUGCAUAGAAUUUAGAUA
[1]; [3]
  pre-steady-state target cleavage rate: 0.000883 ± 0.0053
[2]; [4]
  pre-steady-state target cleavage rate: 0.00187 ± 0.0015
[2]; [5]
  pre-steady-state target cleavage rate: 0.000241 ± 0.033

## UCCUGGAUCAGCUUGCAUAGUAUUAUCAAA
[1]; [3]
  pre-steady-state target cleavage rate: 0.000992 ± 0.0064
[2]; [4]
  pre-steady-state target cleavage rate: 0.000959 ± 0.0039
[2]; [5]
  pre-steady-state target cleavage rate: 0.000194 ± 0.036

## UCCUGGAUGAGCAUGCAUAGUAUUUUGUUA
[1]; [3]
  pre-steady-state target cleavage rate: 0.00297 ± 0.0036
[2]; [4]
  pre-steady-state target cleavage rate: 0.00201 ± 0.0024
[2]; [5]
  pre-steady-state target cleavage rate: 0.000641 ± 0.012

## UCCUGCUACAGCUUGCAUAGUAUUUAGUGUA
[1]; [3]
  pre-steady-state target cleavage rate: 0.00266 ± 0.0042
[2]; [4]
  pre-steady-state target cleavage rate: 0.00597 ± 0.0021
[2]; [5]
  pre-steady-state target cleavage rate: 0.000521 ± 0.009

## UCCUGGUACAGGUUGCUUAGUAUUUAGUUA
[1]; [6]
  pre-steady-state target cleavage rate: 0.328 ± 0.022
[2]; [4]
  pre-steady-state target cleavage rate: 0.00576 ± 0.003
[2]; [5]
  pre-steady-state target cleavage rate: 0.0016 ± 0.0073

## UCCUGGAACAGCUUGCAUAGUAUUUCGUUA
[1]; [3]
  pre-steady-state target cleavage rate: 0.00149 ± 0.004
[2]; [4]
  pre-steady-state target cleavage rate: 0.0025 ± 0.0013
[2]; [5]
  pre-steady-state target cleavage rate: 0.000269 ± 0.027

## UCCUGGUACACCUUGCAUAGUAAUUAGUUA
[1]; [6]
  pre-steady-state target cleavage rate: 0.491 ± 0.14
[2]; [4]
  pre-steady-state target cleavage rate: 0.00464 ± 0.0027
[2]; [5]
  pre-steady-state target cleavage rate: 0.000125 ± 0.064

## UCCUCCUACAGCUUGCAUUGUAUUUAGAAA
[1]; [3]
  pre-steady-state target cleavage rate: 0.00137 ± 0.004
[2]; [4]
  pre-steady-state target cleavage rate: 0.00363 ± 0.0015
[2]; [5]
  pre-steady-state target cleavage rate: 0.000349 ± 0.012

## UCCUGGAACAGAUUGCAUAGUAUUUAGUUA
[1]; [6]
  pre-steady-state target cleavage rate: 0.284 ± 0.012
[2]; [4]
  pre-steady-state target cleavage rate: 0.0572 ± 0.014
[2]; [5]
  pre-steady-state target cleavage rate: 0.00165 ± 0.0051

## UCCUGGAUGACCUUGCAUAGUAUUUACAAA
[1]; [3]
  pre-steady-state target cleavage rate: 0.00132 ± 0.0077
[2]; [4]
  pre-steady-state target cleavage rate: 0.00077 ± 0.0055
[2]; [5]
  pre-steady-state target cleavage rate: 0.000751 ± 0.013
